These are yes or no findings as the source states them, for the method shown. Binding calls can cover weak binding; strength is not graded here. For part of these data: In cells and extracts the contact can be indirect.
Key:
[1] = molecular target: GST fusion form of the Danio rerio Runx2b orthologue (Danio rerio); experiment: pull-down; GST-Runx fusion proteins (1.5 μg) bound to 20 μl glutathione-Sepharose beads, incubated with nuclear extracts (150 μg) of ROS 17/2.8 cells cultured with 10^-8 M 1α,25-dihydroxyvitamin D3 for 18 h; VDR detected by Western blot; only the target purified
[2] = molecular target: GST fusion form of the Danio rerio Runx2b orthologue (Danio rerio); experiment: pull-down; GST-Runx2 fusion proteins on glutathione-Sepharose, incubated with pure recombinant VDR (1.5 μg) for 2 h at 4°C in 20 mM Tris pH 8.0, 100 mM KCl, 0.5% NP-40, 10 mM EDTA, 0.05 mM PMSF, 1 mM DTT, 0.5% non-fat milk; four washes; Western blot (anti-VDR or anti-Myc); both purified

Row | Binder | binding [1] | binding [2]
1 | endogenous mammalian VDR obtained from nuclear extracts of immortalized rat osteoblasts (protein, UniProt P13053 1-423) MEATAASTSLPDPGDFDRNVPRICGVCGDRATGFHFNAMTCEGCKGFFRRSMKRKALFTCPFNGDCRITKDNRRHCQACRLKRCVDIGMMKEFILTDEEVQRKREMIMKRKEEEALKDSLRPKLSEEQQHIIAILLDAHHKTYDPTYADFRDFRPPVRMDGSTGSYSPRPTLSFSGNSSSSSSDLYTTSLDMMEPSGFSNLDLNGEDSDDPSVTLDLSPLSMLPHLADLVSYSIQKVIGFAKMIPGFRDLTSDDQIVLLKSSAIEVIMLRSNQSFTMDDMSWDCGSQDYKYDVTDVSKAGHTLELIEPLIKFQVGLKKLNLHEEEHVLLMAICIVSPDRPGVQDAKLVEAIQDRLSNTLQTYIRCRHPPPGSHQLYAKMIQKLADLRSLNEEHSKQYRSLSFQPENSMKLTPLVLEVFGNEIS | binds | 
2 | recombinant VDR homologue from Homo sapiens (protein, UniProt P11473-1 1-427) MEAMAASTSLPDPGDFDRNVPRICGVCGDRATGFHFNAMTCEGCKGFFRRSMKRKALFTCPFNGDCRITKDNRRHCQACRLKRCVDIGMMKEFILTDEEVQRKREMILKRKEEEALKDSLRPKLSEEQQRIIAILLDAHHKTYDPTYSDFCQFRPPVRVNDGGGSHPSRPNSRHTPSFSGDSSSSCSDHCITSSDMMDSSSFSNLDLSEEDSDDPSVTLELSQLSMLPHLADLVSYSIQKVIGFAKMIPGFRDLTSEDQIVLLKSSAIEVIMLRSNESFTMDDMSWTCGNQDYKYRVSDVTKAGHSLELIEPLIKFQVGLKKLNLHEEEHVLLMAICIVSPDRPGVQDAALIEAIQDRLSNTLQTYIRCRHPPPGSHLLYAKMIQKLADLRSLNEEHSKQYRCLSFQPECSMKLTPLVLEVFGNEIS |  | binds weakly
3 | recombinant form of the Danio rerio VDR homologue (protein, UniProt Q9PTN2 1-453) MLTENSAVNSGGKSKCEAGACESRVNGDATSVMDLMAVSTSATGQDEFDRNAPRICGVCGDKATGFHFNAMTCEGCKGFFRRSMKRKASFTCPFNGNCTITKDNRRHCQACRLKRCIDIGMMKEFILTDEEVQRKKDLIMKRKEEEAAREARKPRLSDEQMQIINSLVEAHHKTYDDSYSDFVRFRPPVREGPVTRSASRAASLHSLSDASSDSFNHSPESVDTKLNFSNLLMMYQDSGSPDSSEEDQQSRLSMLPHLADLVSYSIQKVIGFAKMIPGFRDLTAEDQIALLKSSAIEIIMLRSNQSFSLEDMSWSCGGPDFKYCINDVTKAGHTLELLEPLVKFQVGLKKLKLHEEEHVLLMAICLLSPDRPGVQDHVRIEALQDRLCDVLQAYIRIQHPGGRLLYAKMIQKLADLRSLNEEHSKQYRSLSFQPEHSMQLTPLVLEVFGSEVS |  | binds
